Tested on: ET-1
Assay: ET-1 level in rat plasma (enzyme immunometric assay)
Format: in vivo
Settings: for change in plasma ET-1 levels: clonidine or centhaquin treatment

SMILES | plasma ET-1 level (1 hour after centhaquin 0.15 mg/kg) [pg/mL] | plasma ET-1 level (after centhaquin 0.45 mg/kg) [pg/mL] | change in plasma ET-1 levels | change in plasma ET-1 levels (listed as centhaquin) | plasma ET-1 level (1 hour after clonidine 10 μg/kg) [pg/mL] | plasma ET-1 level (after clonidine 90 μg/kg) [pg/mL]
Cc1cccc(N2CCN(CCc3ccc4ccccc4n3)CC2)c1 [Centhaquin] | 10.39 ± 1.75 | 11.67 ± 1.41 | Neither plasma ET-1 levels were altered | did not produce any change | – | –
Clc1cccc(Cl)c1NC1=NCCN1 [Clonidine, N-(2,6-dichlorophenyl)-4,5-dihydro-1H-imidazol-2-amine] | – | – | did not produce any change | – | 13.45 ± 0.68 | 11.31 ± 0.92
